B1: SPAM1-YNAS: C-terminally truncated human PH20, precursor 485 aa (SEQ ID NO:15), mature 450 aa (SEQ ID NO:67) (protein, listed as Homo sapiens)
chain: LNFRAPPVIPNVPFLWAWNAPSEFCLGKFDEPLDMSLFSFIGSPRINATGQGVTIFYVDRLGYYPYIDSITGVTVNGGIPQKISLQDHLDKAKKDITFYMPVDNLGMAVIDWEEWRPTWARNWKPKDVYKNRSIELVQQQNVQLSLTEATEKAKQEFEKAGKDFLVETIKLGKLLRPNHLWGYYLFPDCYNHHYKKPGYNGSCFNVEIKRNDDLSWLWNESTALYPSIYLNTQQSPVAATLYVRNRVREAIRVSKIPDAKSPLPVFAYTRIVFTDQVLKFLSQDELVYTFGETVALGASGIVIWGTLSIMRSMKSCLLLDNYMETILNPYIINVTLAAKMCSQVLCQEQGVCIRKNWNSSDYLHLNPDNFAIQLEKGGKFTVRGKPTLEDLEQFSEKFYCSCYSTLSCKEKADVKDTDAVDVCIADGVCIDAFLKPPMETEEPQIFYNAS
modifications: mature HuPH20 36-485
B2: SPAM1-FYNA: C-terminally truncated human PH20, precursor 484 aa (SEQ ID NO:16), mature 449 aa (SEQ ID NO:68) (protein, listed as Homo sapiens)
chain 1: MGVLKFKHIFFRSFVKSSGVSQIVFTFLLIPCCLTLNFRAPPVIPNVPFLWAWNAPSEFCLGKFDEPLDMSLFSFIGSPRINATGQGVTIFYVDRLGYYPYIDSITGVTVNGGIPQKISLQDHLDKAKKDITFYMPVDNLGMAVIDWEEWRPTWARNWKPKDVYKNRSIELVQQQNVQLSLTEATEKAKQEFEKAGKDFLVETIKLGKLLRPNHLWGYYLFPDCYNHHYKKPGYNGSCFNVEIKRNDDLSWLWNESTALYPSIYLNTQQSPVAATLYVRNRVREAIRVSKIPDAKSPLPVFAYTRIVFTDQVLKFLSQDELVYTFGETVALGASGIVIWGTLSIMRSMKSCLLLDNYMETILNPYIINVTLAAKMCSQVLCQEQGVCIRKNWNSSDYLHLNPDNFAIQLEKGGKFTVRGKPTLEDLEQFSEKFYCSCYSTLSCKEKADVKDTDAVDVCIADGVCIDAFLKPPMETEEPQIFYNA
chain 2: LNFRAPPVIPNVPFLWAWNAPSEFCLGKFDEPLDMSLFSFIGSPRINATGQGVTIFYVDRLGYYPYIDSITGVTVNGGIPQKISLQDHLDKAKKDITFYMPVDNLGMAVIDWEEWRPTWARNWKPKDVYKNRSIELVQQQNVQLSLTEATEKAKQEFEKAGKDFLVETIKLGKLLRPNHLWGYYLFPDCYNHHYKKPGYNGSCFNVEIKRNDDLSWLWNESTALYPSIYLNTQQSPVAATLYVRNRVREAIRVSKIPDAKSPLPVFAYTRIVFTDQVLKFLSQDELVYTFGETVALGASGIVIWGTLSIMRSMKSCLLLDNYMETILNPYIINVTLAAKMCSQVLCQEQGVCIRKNWNSSDYLHLNPDNFAIQLEKGGKFTVRGKPTLEDLEQFSEKFYCSCYSTLSCKEKADVKDTDAVDVCIADGVCIDAFLKPPMETEEPQIFYNA
modifications: HuPH20 precursor 1-484; Mature HuPH20 36-484
B3: SPAM1-IFYN: C-terminally truncated human PH20, precursor 483 aa (SEQ ID NO:17), mature 448 aa (SEQ ID NO:69) (protein, listed as Homo sapiens)
chain 1: MGVLKFKHIFFRSFVKSSGVSQIVFTFLLIPCCLTLNFRAPPVIPNVPFLWAWNAPSEFCLGKFDEPLDMSLFSFIGSPRINATGQGVTIFYVDRLGYYPYIDSITGVTVNGGIPQKISLQDHLDKAKKDITFYMPVDNLGMAVIDWEEWRPTWARNWKPKDVYKNRSIELVQQQNVQLSLTEATEKAKQEFEKAGKDFLVETIKLGKLLRPNHLWGYYLFPDCYNHHYKKPGYNGSCFNVEIKRNDDLSWLWNESTALYPSIYLNTQQSPVAATLYVRNRVREAIRVSKIPDAKSPLPVFAYTRIVFTDQVLKFLSQDELVYTFGETVALGASGIVIWGTLSIMRSMKSCLLLDNYMETILNPYIINVTLAAKMCSQVLCQEQGVCIRKNWNSSDYLHLNPDNFAIQLEKGGKFTVRGKPTLEDLEQFSEKFYCSCYSTLSCKEKADVKDTDAVDVCIADGVCIDAFLKPPMETEEPQIFYN
chain 2: LNFRAPPVIPNVPFLWAWNAPSEFCLGKFDEPLDMSLFSFIGSPRINATGQGVTIFYVDRLGYYPYIDSITGVTVNGGIPQKISLQDHLDKAKKDITFYMPVDNLGMAVIDWEEWRPTWARNWKPKDVYKNRSIELVQQQNVQLSLTEATEKAKQEFEKAGKDFLVETIKLGKLLRPNHLWGYYLFPDCYNHHYKKPGYNGSCFNVEIKRNDDLSWLWNESTALYPSIYLNTQQSPVAATLYVRNRVREAIRVSKIPDAKSPLPVFAYTRIVFTDQVLKFLSQDELVYTFGETVALGASGIVIWGTLSIMRSMKSCLLLDNYMETILNPYIINVTLAAKMCSQVLCQEQGVCIRKNWNSSDYLHLNPDNFAIQLEKGGKFTVRGKPTLEDLEQFSEKFYCSCYSTLSCKEKADVKDTDAVDVCIADGVCIDAFLKPPMETEEPQIFYN
modifications: HuPH20 precursor 1-483; Mature HuPH20 36-483
B4: SPAM1-QIFY: C-terminally truncated human PH20, precursor 482 aa (SEQ ID NO:18), mature 447 aa (SEQ ID NO:70) (protein, listed as Homo sapiens)
chain 1: MGVLKFKHIFFRSFVKSSGVSQIVFTFLLIPCCLTLNFRAPPVIPNVPFLWAWNAPSEFCLGKFDEPLDMSLFSFIGSPRINATGQGVTIFYVDRLGYYPYIDSITGVTVNGGIPQKISLQDHLDKAKKDITFYMPVDNLGMAVIDWEEWRPTWARNWKPKDVYKNRSIELVQQQNVQLSLTEATEKAKQEFEKAGKDFLVETIKLGKLLRPNHLWGYYLFPDCYNHHYKKPGYNGSCFNVEIKRNDDLSWLWNESTALYPSIYLNTQQSPVAATLYVRNRVREAIRVSKIPDAKSPLPVFAYTRIVFTDQVLKFLSQDELVYTFGETVALGASGIVIWGTLSIMRSMKSCLLLDNYMETILNPYIINVTLAAKMCSQVLCQEQGVCIRKNWNSSDYLHLNPDNFAIQLEKGGKFTVRGKPTLEDLEQFSEKFYCSCYSTLSCKEKADVKDTDAVDVCIADGVCIDAFLKPPMETEEPQIFY
chain 2: LNFRAPPVIPNVPFLWAWNAPSEFCLGKFDEPLDMSLFSFIGSPRINATGQGVTIFYVDRLGYYPYIDSITGVTVNGGIPQKISLQDHLDKAKKDITFYMPVDNLGMAVIDWEEWRPTWARNWKPKDVYKNRSIELVQQQNVQLSLTEATEKAKQEFEKAGKDFLVETIKLGKLLRPNHLWGYYLFPDCYNHHYKKPGYNGSCFNVEIKRNDDLSWLWNESTALYPSIYLNTQQSPVAATLYVRNRVREAIRVSKIPDAKSPLPVFAYTRIVFTDQVLKFLSQDELVYTFGETVALGASGIVIWGTLSIMRSMKSCLLLDNYMETILNPYIINVTLAAKMCSQVLCQEQGVCIRKNWNSSDYLHLNPDNFAIQLEKGGKFTVRGKPTLEDLEQFSEKFYCSCYSTLSCKEKADVKDTDAVDVCIADGVCIDAFLKPPMETEEPQIFY
modifications: HuPH20 precursor 1-482; Mature HuPH20 36-482
B5: SPAM1-PQIF: C-terminally truncated human PH20, precursor 481 aa (SEQ ID NO:19), mature 446 aa (SEQ ID NO:71) (protein, listed as Homo sapiens)
chain 1: MGVLKFKHIFFRSFVKSSGVSQIVFTFLLIPCCLTLNFRAPPVIPNVPFLWAWNAPSEFCLGKFDEPLDMSLFSFIGSPRINATGQGVTIFYVDRLGYYPYIDSITGVTVNGGIPQKISLQDHLDKAKKDITFYMPVDNLGMAVIDWEEWRPTWARNWKPKDVYKNRSIELVQQQNVQLSLTEATEKAKQEFEKAGKDFLVETIKLGKLLRPNHLWGYYLFPDCYNHHYKKPGYNGSCFNVEIKRNDDLSWLWNESTALYPSIYLNTQQSPVAATLYVRNRVREAIRVSKIPDAKSPLPVFAYTRIVFTDQVLKFLSQDELVYTFGETVALGASGIVIWGTLSIMRSMKSCLLLDNYMETILNPYIINVTLAAKMCSQVLCQEQGVCIRKNWNSSDYLHLNPDNFAIQLEKGGKFTVRGKPTLEDLEQFSEKFYCSCYSTLSCKEKADVKDTDAVDVCIADGVCIDAFLKPPMETEEPQIF
chain 2: LNFRAPPVIPNVPFLWAWNAPSEFCLGKFDEPLDMSLFSFIGSPRINATGQGVTIFYVDRLGYYPYIDSITGVTVNGGIPQKISLQDHLDKAKKDITFYMPVDNLGMAVIDWEEWRPTWARNWKPKDVYKNRSIELVQQQNVQLSLTEATEKAKQEFEKAGKDFLVETIKLGKLLRPNHLWGYYLFPDCYNHHYKKPGYNGSCFNVEIKRNDDLSWLWNESTALYPSIYLNTQQSPVAATLYVRNRVREAIRVSKIPDAKSPLPVFAYTRIVFTDQVLKFLSQDELVYTFGETVALGASGIVIWGTLSIMRSMKSCLLLDNYMETILNPYIINVTLAAKMCSQVLCQEQGVCIRKNWNSSDYLHLNPDNFAIQLEKGGKFTVRGKPTLEDLEQFSEKFYCSCYSTLSCKEKADVKDTDAVDVCIADGVCIDAFLKPPMETEEPQIF
modifications: HuPH20 precursor 1-481; Mature HuPH20 36-481
B6: SPAM1-EPQI: C-terminally truncated human PH20, precursor 480 aa (SEQ ID NO:20), mature 445 aa (SEQ ID NO:72) (protein, listed as Homo sapiens)
chain 1: MGVLKFKHIFFRSFVKSSGVSQIVFTFLLIPCCLTLNFRAPPVIPNVPFLWAWNAPSEFCLGKFDEPLDMSLFSFIGSPRINATGQGVTIFYVDRLGYYPYIDSITGVTVNGGIPQKISLQDHLDKAKKDITFYMPVDNLGMAVIDWEEWRPTWARNWKPKDVYKNRSIELVQQQNVQLSLTEATEKAKQEFEKAGKDFLVETIKLGKLLRPNHLWGYYLFPDCYNHHYKKPGYNGSCFNVEIKRNDDLSWLWNESTALYPSIYLNTQQSPVAATLYVRNRVREAIRVSKIPDAKSPLPVFAYTRIVFTDQVLKFLSQDELVYTFGETVALGASGIVIWGTLSIMRSMKSCLLLDNYMETILNPYIINVTLAAKMCSQVLCQEQGVCIRKNWNSSDYLHLNPDNFAIQLEKGGKFTVRGKPTLEDLEQFSEKFYCSCYSTLSCKEKADVKDTDAVDVCIADGVCIDAFLKPPMETEEPQI
chain 2: LNFRAPPVIPNVPFLWAWNAPSEFCLGKFDEPLDMSLFSFIGSPRINATGQGVTIFYVDRLGYYPYIDSITGVTVNGGIPQKISLQDHLDKAKKDITFYMPVDNLGMAVIDWEEWRPTWARNWKPKDVYKNRSIELVQQQNVQLSLTEATEKAKQEFEKAGKDFLVETIKLGKLLRPNHLWGYYLFPDCYNHHYKKPGYNGSCFNVEIKRNDDLSWLWNESTALYPSIYLNTQQSPVAATLYVRNRVREAIRVSKIPDAKSPLPVFAYTRIVFTDQVLKFLSQDELVYTFGETVALGASGIVIWGTLSIMRSMKSCLLLDNYMETILNPYIINVTLAAKMCSQVLCQEQGVCIRKNWNSSDYLHLNPDNFAIQLEKGGKFTVRGKPTLEDLEQFSEKFYCSCYSTLSCKEKADVKDTDAVDVCIADGVCIDAFLKPPMETEEPQI
modifications: HuPH20 precursor 1-480; Mature HuPH20 36-480

tested on: CHO-S cells; experiment: Western blot analysis of PH20 expression in media and cells after transient expression; type: cell-based, Chinese Hamster; conditions: band at approximately 66 kDa
How it was run: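 PH20 expression and solubility were judged by anti-PH20 Western blot of non-reduced media and cell fractions, with expression shown by a ~66 kDa band. Samples came from CHO-S cells transiently transfected (GeneJuice) with mutant PH20-HZ24 DNA and cultured 48-72 h. GPI-anchored mutants were cleaved with PI-PLC to release soluble protein.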

| Molecule | Protein Expression |
| --- | --- |
| B1 | YES |
| B2 | YES |
| B3 | YES |
| B4 | YES |
| B5 | YES |
| B6 | YES |

Source: patent US9284543B2, “Neutral active soluble truncated PH20 polypeptides and uses thereof” (Halozyme, Inc., priority 2008, dated 2016)
